Test results taken from the supplement of paper PMC11006884.
What follows is the remainder of the data, with few or none of the targets with a hit. The data scatter; read single values as rough. Only a part is listed here, and it is no random draw.

Protein sequences, listed by entry. Tags and fused reporters are not part of them. Lines headed by an entry give the natural chain unless they say otherwise; changes in a name come on top.
UniProt Q9UGP4: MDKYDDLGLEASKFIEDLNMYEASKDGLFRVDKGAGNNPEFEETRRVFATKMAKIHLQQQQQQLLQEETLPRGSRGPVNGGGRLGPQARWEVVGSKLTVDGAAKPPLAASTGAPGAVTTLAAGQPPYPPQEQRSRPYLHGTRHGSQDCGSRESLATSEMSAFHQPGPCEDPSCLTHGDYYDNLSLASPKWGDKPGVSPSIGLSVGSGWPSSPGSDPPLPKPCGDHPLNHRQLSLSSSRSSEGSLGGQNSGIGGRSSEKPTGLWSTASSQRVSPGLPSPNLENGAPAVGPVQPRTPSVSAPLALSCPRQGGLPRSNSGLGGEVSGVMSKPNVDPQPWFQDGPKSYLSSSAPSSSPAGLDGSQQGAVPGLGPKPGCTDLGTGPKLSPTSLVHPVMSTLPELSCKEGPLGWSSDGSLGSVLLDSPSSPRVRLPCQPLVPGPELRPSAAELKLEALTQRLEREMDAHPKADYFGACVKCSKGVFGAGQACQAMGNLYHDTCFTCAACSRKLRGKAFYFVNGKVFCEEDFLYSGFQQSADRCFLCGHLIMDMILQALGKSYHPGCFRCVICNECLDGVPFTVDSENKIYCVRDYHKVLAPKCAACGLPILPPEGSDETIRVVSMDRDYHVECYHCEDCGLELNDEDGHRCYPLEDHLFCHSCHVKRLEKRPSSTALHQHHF
UniProt Q9NVS9: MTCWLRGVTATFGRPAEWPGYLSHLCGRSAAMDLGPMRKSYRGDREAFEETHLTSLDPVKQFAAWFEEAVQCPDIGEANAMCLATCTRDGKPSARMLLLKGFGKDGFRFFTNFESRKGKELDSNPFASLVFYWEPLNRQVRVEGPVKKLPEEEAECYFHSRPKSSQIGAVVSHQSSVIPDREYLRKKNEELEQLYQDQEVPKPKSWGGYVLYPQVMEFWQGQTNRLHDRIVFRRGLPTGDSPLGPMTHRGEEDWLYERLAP
UniProt Q9UBB6: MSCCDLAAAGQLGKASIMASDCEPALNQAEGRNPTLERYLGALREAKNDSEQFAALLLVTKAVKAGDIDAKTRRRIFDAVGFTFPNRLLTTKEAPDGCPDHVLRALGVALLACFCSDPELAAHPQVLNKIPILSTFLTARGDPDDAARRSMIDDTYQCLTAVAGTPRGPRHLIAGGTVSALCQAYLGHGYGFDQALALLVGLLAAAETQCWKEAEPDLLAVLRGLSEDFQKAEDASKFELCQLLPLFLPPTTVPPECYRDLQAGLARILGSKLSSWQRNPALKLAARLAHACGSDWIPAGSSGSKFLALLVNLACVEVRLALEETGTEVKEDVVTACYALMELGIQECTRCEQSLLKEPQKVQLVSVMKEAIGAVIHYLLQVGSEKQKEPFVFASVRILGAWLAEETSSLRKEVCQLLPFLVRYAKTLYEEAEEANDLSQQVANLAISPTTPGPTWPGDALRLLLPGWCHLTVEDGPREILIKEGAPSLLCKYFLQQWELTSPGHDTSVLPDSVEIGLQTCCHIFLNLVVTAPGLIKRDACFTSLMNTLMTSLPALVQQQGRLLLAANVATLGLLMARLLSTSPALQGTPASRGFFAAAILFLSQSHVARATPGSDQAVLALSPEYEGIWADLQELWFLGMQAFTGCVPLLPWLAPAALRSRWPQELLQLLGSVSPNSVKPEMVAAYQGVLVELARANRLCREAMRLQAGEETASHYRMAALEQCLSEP
UniProt Q9NVP2, whole entry, looked up: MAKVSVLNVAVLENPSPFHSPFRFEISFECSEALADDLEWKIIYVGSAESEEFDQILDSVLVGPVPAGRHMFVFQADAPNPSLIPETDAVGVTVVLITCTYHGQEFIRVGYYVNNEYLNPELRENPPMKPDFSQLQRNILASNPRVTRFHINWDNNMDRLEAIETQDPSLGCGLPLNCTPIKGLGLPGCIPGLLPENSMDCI
UniProt Q9NYP9: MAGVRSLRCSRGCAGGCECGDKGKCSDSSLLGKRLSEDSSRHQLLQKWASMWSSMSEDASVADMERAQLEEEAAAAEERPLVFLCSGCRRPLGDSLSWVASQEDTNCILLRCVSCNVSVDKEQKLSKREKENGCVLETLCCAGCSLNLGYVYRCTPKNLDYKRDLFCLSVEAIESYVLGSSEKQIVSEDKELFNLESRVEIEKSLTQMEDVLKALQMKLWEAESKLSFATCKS
UniProt Q9UGR2: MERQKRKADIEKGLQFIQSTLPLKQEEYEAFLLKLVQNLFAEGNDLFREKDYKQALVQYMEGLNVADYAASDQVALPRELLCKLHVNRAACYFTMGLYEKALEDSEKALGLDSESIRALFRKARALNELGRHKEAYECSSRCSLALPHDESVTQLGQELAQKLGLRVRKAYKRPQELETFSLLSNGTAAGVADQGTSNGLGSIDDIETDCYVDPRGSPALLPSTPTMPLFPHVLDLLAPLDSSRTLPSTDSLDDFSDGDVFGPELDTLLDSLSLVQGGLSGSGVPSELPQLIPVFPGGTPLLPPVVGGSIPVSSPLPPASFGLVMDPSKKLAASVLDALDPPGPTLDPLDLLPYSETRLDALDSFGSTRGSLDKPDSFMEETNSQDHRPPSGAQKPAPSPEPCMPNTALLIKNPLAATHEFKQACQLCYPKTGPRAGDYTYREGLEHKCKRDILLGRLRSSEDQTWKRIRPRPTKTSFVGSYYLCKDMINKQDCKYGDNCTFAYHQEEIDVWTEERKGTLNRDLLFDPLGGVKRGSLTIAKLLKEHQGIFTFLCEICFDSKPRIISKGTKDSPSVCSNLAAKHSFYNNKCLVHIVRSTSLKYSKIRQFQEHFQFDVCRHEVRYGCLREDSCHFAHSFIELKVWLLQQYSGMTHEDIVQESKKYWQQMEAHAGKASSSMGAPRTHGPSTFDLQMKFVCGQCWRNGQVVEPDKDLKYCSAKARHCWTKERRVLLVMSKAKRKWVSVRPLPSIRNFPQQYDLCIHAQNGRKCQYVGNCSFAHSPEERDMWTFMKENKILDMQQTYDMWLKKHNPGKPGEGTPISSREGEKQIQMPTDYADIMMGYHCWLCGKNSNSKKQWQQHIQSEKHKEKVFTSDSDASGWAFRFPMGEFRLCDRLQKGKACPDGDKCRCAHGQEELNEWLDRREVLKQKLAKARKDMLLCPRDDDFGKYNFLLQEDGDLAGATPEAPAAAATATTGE
UniProt Q9NWR8: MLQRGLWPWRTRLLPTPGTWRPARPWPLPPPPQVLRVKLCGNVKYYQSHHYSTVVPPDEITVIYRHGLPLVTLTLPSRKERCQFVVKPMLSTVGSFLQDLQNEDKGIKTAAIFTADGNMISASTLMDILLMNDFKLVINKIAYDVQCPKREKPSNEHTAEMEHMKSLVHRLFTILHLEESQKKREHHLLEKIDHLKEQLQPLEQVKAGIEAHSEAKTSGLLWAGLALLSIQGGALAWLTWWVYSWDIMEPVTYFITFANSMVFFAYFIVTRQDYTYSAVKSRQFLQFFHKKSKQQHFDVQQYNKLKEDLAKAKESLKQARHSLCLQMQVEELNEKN
UniProt Q9NXA8: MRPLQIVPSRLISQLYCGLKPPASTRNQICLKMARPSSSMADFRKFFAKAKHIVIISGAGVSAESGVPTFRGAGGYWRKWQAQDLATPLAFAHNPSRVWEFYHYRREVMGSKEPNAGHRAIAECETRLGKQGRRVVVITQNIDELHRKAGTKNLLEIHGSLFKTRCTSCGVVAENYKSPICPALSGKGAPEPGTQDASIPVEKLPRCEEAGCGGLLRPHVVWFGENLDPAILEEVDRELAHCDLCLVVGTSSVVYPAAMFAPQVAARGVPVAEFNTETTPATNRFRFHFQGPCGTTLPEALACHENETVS
UniProt Q9NVG8: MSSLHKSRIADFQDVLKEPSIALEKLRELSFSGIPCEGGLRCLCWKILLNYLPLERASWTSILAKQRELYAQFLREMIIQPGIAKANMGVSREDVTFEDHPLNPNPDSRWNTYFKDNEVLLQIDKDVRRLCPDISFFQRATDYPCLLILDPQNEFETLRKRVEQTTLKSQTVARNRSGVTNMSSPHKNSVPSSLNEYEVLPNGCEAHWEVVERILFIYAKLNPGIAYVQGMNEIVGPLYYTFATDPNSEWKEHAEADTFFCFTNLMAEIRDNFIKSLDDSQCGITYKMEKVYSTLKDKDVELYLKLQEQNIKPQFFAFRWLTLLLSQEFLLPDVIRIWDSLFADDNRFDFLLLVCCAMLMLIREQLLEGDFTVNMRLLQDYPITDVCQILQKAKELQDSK
UniProt Q9NZ09: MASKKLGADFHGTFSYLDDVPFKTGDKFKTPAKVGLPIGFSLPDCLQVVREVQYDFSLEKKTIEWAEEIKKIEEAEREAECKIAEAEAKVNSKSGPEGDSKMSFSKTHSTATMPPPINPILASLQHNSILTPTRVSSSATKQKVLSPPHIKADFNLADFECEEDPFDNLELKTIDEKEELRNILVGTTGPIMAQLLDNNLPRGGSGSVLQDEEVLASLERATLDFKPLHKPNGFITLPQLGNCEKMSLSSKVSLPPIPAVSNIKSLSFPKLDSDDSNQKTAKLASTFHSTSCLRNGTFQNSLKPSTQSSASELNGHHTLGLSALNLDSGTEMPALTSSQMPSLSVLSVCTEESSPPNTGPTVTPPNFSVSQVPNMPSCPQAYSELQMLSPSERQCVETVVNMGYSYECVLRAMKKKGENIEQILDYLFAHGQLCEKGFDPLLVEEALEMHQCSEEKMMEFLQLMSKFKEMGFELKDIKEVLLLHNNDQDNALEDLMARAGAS
UniProt Q9UBC1: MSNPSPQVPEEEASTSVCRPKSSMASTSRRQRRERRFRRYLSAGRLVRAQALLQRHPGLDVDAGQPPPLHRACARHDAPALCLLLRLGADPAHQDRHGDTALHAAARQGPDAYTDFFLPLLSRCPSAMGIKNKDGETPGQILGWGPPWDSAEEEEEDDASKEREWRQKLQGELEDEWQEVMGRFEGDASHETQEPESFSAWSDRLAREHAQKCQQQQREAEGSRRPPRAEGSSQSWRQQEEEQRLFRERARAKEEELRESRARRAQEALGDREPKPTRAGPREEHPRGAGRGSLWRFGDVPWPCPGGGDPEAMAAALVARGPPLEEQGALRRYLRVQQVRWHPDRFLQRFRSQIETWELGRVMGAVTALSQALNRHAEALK
UniProt Q9NVI1: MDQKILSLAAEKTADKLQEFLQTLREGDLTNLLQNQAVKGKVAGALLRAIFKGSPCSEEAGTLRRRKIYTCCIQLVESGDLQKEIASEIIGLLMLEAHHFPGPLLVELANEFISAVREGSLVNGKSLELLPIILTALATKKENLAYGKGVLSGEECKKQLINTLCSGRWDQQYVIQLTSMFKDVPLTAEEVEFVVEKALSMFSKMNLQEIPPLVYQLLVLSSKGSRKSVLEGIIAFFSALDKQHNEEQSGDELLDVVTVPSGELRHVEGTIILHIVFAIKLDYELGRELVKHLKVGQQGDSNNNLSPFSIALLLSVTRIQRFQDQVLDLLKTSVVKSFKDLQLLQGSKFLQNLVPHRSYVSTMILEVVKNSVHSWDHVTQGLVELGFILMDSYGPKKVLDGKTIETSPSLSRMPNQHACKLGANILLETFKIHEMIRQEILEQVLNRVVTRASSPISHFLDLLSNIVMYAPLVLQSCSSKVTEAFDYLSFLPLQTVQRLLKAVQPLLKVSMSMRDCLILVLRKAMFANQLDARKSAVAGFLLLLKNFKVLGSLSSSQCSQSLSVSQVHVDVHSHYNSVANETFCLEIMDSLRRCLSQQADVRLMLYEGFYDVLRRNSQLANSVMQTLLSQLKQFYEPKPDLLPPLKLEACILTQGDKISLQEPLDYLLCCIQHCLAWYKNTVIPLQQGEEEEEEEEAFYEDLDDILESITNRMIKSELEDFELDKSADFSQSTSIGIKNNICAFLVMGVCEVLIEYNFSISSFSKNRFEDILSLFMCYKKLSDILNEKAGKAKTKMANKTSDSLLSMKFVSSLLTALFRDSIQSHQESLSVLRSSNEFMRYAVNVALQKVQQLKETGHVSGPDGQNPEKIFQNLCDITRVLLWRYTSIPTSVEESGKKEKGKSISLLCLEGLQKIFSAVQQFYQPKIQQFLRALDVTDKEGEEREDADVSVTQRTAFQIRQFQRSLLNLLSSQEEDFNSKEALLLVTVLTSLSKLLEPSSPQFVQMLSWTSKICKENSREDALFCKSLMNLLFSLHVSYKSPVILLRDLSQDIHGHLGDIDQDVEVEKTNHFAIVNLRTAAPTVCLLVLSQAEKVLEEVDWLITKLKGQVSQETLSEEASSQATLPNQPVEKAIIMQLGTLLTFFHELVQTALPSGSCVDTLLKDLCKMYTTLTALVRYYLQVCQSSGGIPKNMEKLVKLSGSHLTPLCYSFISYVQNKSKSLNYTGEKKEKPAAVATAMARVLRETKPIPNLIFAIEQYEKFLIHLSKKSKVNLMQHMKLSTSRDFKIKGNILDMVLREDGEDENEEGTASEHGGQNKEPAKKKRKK

What follows are targets tested with COC(=O)/C=C/c1ccccc1 [methyl cinnamate] (assay: log2 ratio of iodoacetamide-alkyne labeling of the cysteine site, DMSO over compound (competition); higher = stronger covalent engagement of the cysteine by the compound, active = 1 or more). Settings: 500 µM; treatment time 1 h; system: HEK293T cell lysate.
In short: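 Electrophile (500 µM) or vehicle was added to HEK293T lysate (2 mg/mL) for 1 h at ambient temperature before iodoacetamide alkyne labelling (1 h) and click coupling to sCIP-TMT reagents. After pooling, overnight trypsin digestion at 37 °C, streptavidin enrichment and acid elution, peptides were measured by Orbitrap Eclipse LC-MS/MS with FAIMS and quantified in FragPipe. Each cysteine's log2 competition ratio compares mean control-channel with mean compound-channel reporter intensity, control over compound. Data came from duplicate channels across three replicates, excluding cysteines quantified in only one replicate.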
With LIMD1 C401 (UniProt Q9UGP4) the “log2 ratio of iodoacetamide-alkyne labeling” value (“log2 ratio” for short) was inactive: 0.038.
In the case of PNPO C72 (UniProt Q9NVS9), the “log2 ratio” value is reported as inactive: -0.341.
For NCDN C4 (UniProt Q9UBB6), the “log2 ratio” value was inactive: 0.397.
With ASF1B C189 (UniProt Q9NVP2) the “log2 ratio” value was inactive: -0.224.
UniProt Q9NYP9_C107 was tested, and the “log2 ratio” value was inactive: 0.154.
With CTSZ C92 (UniProt Q9UBR2) the “log2 ratio” value was inactive: -0.297.
For SACS C3756 (UniProt Q9NZJ4), the “log2 ratio” value was inactive: 0.159.
For ZC3H7B C925 (UniProt Q9UGR2), the “log2 ratio” value was inactive: -0.249.
With CCDC88C C1520 (UniProt Q9P219) the “log2 ratio” value was inactive: 0.378.
In the case of UniProt Q9NWR8_C324, the “log2 ratio” value is reported as inactive: 0.0898.
SIRT5 C303 (UniProt Q9NXA8) was tested, and the “log2 ratio” value was inactive: 0.0796.
TBC1D13 C387 (UniProt Q9NVG8) was tested, and the “log2 ratio” value was inactive: 0.151.
In the case of UBAP1 C161 (UniProt Q9NZ09), the “log2 ratio” value is reported as inactive: 0.327.
For UniProt Q9UBC1_C304, the “log2 ratio” value was inactive: 0.222.
FANCI C875 (UniProt Q9NVI1) was tested, and the “log2 ratio” value was inactive: 0.141.
For UniProt Q9P2P1_C1222, the “log2 ratio” value was inactive: 0.0104.
